Reference: PubChem BioAssay AID504793 (Drosophila RNAi Screening Center, 2011)
The screen tested about 23,000 reagents; shown is a random part of those with a known target gene and a result. In the full data, 62 (0.27%) were called active. 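Calls come from follow-up tests whose scores are not deposited, so confirmed genes may have low counts here; counts are not normalised per plate.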 The raw values are shown without normalisation. Reagents against one gene are numbered here. A plus sign joins genes that one reagent is predicted to hit.

- Assay: 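Genes required for cells to halt at G2/M after double-strand DNA breaks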 (primary screen)
- Cell system: Drosophila S2R+ cells
- Reagent: long dsRNA against Drosophila genes, about 0.25 µg dsRNA per well
- Time to read-out: 4 days of dsRNA, then 4 hours of drug before read-out
- Treatment: doxorubicin 0.5 µM for 4 hours to cause double-strand breaks, in cells also given a low, harmless dose of dsRNA against nbs to sensitise the assay
- Measured: 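Per-well count of mitotic cells stained for phospho-histone H3 after doxorubicin exposure, used as mitotic index; counts are raw and not normalised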
- Direction: mitotic cells: higher = more cells in mitosis, weaker G2 arrest
- Rule for the call: 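a call needs confirmation in secondary tests, with other dsRNAs and a check of mitotic timing without damage, not just a high primary count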
- Calls: active = confirmed in follow-up tests; inactive = not confirmed

gene	reagent	mitotic cells, replicate 1	mitotic cells, replicate 2	call
CG6276	1	7		inactive
CG6276	2	8		inactive
CG34324	1	12		inactive
dgt2	1	36		inactive
dgt2	2	48		inactive
CG14325	1	12		inactive
CG11400	1	6		inactive
alpha-Est3	1	4		inactive
CG42380 + CG42379 + PIG-M + 1 more	1	3		inactive
CG42380 + CG42379 + PIG-M + 1 more	2	6		inactive
CheB98a	1	12		inactive
CG7025	1			inactive
Liprin-beta	1	5		inactive
Liprin-beta	2	20		inactive
Liprin-beta	3	5		inactive
CG8032	1	9		inactive
CG8032	2	8		inactive
Nmdmc	1	3		inactive
Nmdmc	2	6		inactive
CG1542	1	7		inactive
CG1542	2	4		inactive
bru1	1	2		inactive
bru1	2	22		inactive
bru1	3	16		inactive
bru1	4	21		inactive
bru1	5	3		inactive
mia	1	2		inactive
CG14855	1	3		inactive
CG14855	2	12		inactive
Ravus	1	3		inactive
Cbs	1	4		inactive
CG13506	1	3		inactive
CG10486	1	3		inactive
CG32246	1	10		inactive
CG32246	2	5		inactive
CG7130	1	5		inactive
Hap40	1	5		inactive
Hap40	2	4		inactive
Grip91	1	108		inactive
Drice	1	5		inactive
Drice	2	3		inactive
CG7330	1	8		inactive
CG7330	2	3		inactive
CG8888	1	8		inactive
CG8888	2	2		inactive
mtt	1	7		inactive
mtt	2	8		inactive
mtt	3	6		inactive
mtt	4	5		inactive
PIG-L	1	12		inactive
PIG-L	2	5		inactive
nis	1	1		inactive
Ank	1	13		inactive
Ank	2	8		inactive
CG10589	1	5		inactive
ppk6	1	4		inactive
ppk6	2	6		inactive
CG13377	1	4		inactive
fidipidine	1	6		inactive
fidipidine	2	10		inactive
CG5290	1	7		inactive
CG5290	2	5		inactive
Isha	1	3		inactive
T48	1	9		inactive
CG4950	1	1		inactive
CG11170	1	11		inactive
CG11170	2	1		inactive
RpL10Ab	1	11		inactive
RpL10Ab	2	8		inactive
Mfe2	1	8		inactive
mas	1	4		inactive
mas	2	8		inactive
CG31337	1	6		inactive
CG17666	1	1		inactive
CG17666	2	7		inactive
sca	1	7		inactive
sca	2	1		inactive
CG6813	1	3		inactive
step	1	4		inactive
step	2	4		inactive
CG13999	1	10		inactive
CG13999	2	4		inactive
grau	1	7		inactive
grau	2	7		inactive
Tob	1	9		inactive
Mnat9	1	10		inactive
Socs36E	1	6	12	inactive
Socs36E	2	8		inactive
CG8661	1	8		inactive
CG8661	2	4		inactive
Nepl20	1	8		inactive
CG7714	1	7		inactive
CG7714	2	5		inactive
CG6465	1	9		inactive
CG6465	2	11		inactive
CG17290	1	3		inactive
CG17290	2	4		inactive
CG5335	1	4		inactive
CG5335	2	5		inactive
Dhfr	1	3		inactive
Dhfr	2	5		inactive
Adk2	1	6		inactive
Slik	1	10		inactive
Slik	2	8		inactive
Dysb	1	7		inactive
obst-H	1	7		inactive
obst-H	2	6		inactive
parvin	1	5		inactive
parvin	2	6		inactive
tsg	1	6		inactive
tsg	2	16		inactive
